# In US4624953A, “1-piperazinocarboxylates and pharmaceutical compositions containing them” (priority 1981, dated 1986):
# Tested on: isolation-induced aggressive behaviour
# Assay: Isolation-induced aggressive behaviour test
# Type: in vivo, male NMRI mice
# Conditions: Mus musculus, sc, 0.5 h, read-out: ED50, isolation induced aggressive behaviour
# Description: Male mice subjected to prolonged isolation develop aggressive behaviour against each other when paired (Yen, C. Y. et al., Arch. Int. Pharmacodyn. 123, 179, (1959); Valzelli, L., Adv. Pharmacol. 5, 79 (1967)). […] The clinical correlation of this test indicates tranquillizing and anxiolytic activities as well as antiaggressive properties as such (Duncan, R. L. et al., J. Med. Chem. 13, 1 (1970)).
# This type of aggression is interesting because it is known that this kind of emotional behaviour might be located in limbic structures in the brain (MacLean, P. D., Psychosom. Med. 11, 338 (1949)).
# Every week male NMRI mice, weighing 20-22 g, were isolated in Makrolon cages for three weeks with diet and water ad libitum. A piece of cardboard was placed between the cages to prevent visual contact.
# To test aggressiveness the mice were paired in a neutral area, a beaker (14 cm high and diameter 14 cm). A pair is considered aggressive if both the animals show clear signs of fighting within 5 min. This fighting is characterized by biting and vocalization. As soon as fighting is seen, the mice are separated and brought to their home cage. […] Animals showing no aggression are discarded. […] The test substance is administered s.c. (0.2-0.4 ml/20 g). The mice are paired 0.5 h after the injection for trials of 5 min. duration. […]
smiles,measurement,value
CN1C(=O)CN=C(c2ccccc2)c2cc(Cl)ccc21 [Diazepam],ED50,6.7 mg/kg
